The record followed here is publication PMC7819943, “Rice protein-binding microarrays: a tool to detect cis-acting elements near promoter regions in rice”.

Protein sequences, listed by entry. Tags and fused reporters are not part of them.
UniProt Q0JBA9, entry or part of it: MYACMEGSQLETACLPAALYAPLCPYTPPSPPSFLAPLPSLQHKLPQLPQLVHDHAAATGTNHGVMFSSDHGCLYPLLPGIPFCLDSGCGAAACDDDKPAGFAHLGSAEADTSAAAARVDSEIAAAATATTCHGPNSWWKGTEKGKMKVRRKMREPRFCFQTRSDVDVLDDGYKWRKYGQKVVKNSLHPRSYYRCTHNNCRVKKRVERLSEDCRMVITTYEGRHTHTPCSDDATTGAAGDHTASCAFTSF

Some of the results follow.

The assay deals with OsWRKY34 (Oryza sativa, UniProt Q0JBA9 1-250). The assay is described as follows: protein-binding microarray (RPBM); PBS, 2% BSA, 51.3 ng/ul salmon testes DNA, 50 uM zinc acetate, 200 nM TF, 25 C, 1 h; high values mean tight binding. Particulars: protein: recombinant; tags: N-terminal polyhistidine and DsRed monomer fusion (pET32a); label: CyDye5-dUTP incorporated in the synthesized complementary strand; 3' TTTTT single-stranded linker to array surface; dsDNA, one strand shown. In outline: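 Binding signal is defined as the fluorescence intensity of each feature in arbitrary units, read on an Axon 4000B scanner. Transcription factors with N-terminal polyhistidine and DsRed fusions came from E. coli BL21-CodonPlus and were purified on Ni–NTA. They were incubated at 200 nM for 1 h at 25 °C on a custom Agilent array that had been made double-stranded with Cy5-dUTP, with 50 µM zinc acetate present, and the array was washed.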
For the sequence “GTCCATCGACCAAAGTCGTCCAAGTGCAGCATATATATAACGGAGTCACCTAGTGCAG”, the binding signal was 9760 fluorescence intensity (a.u.).
With “TCAAATCCCACCCGTGCACTCGAGCCCCGCCACGTCCTTCCGGAGTCACCTAGTGCAG”, the binding signal was 8550 fluorescence intensity (a.u.).
For “TGACAAGTTGAGGGACCTTCGGTGTACTTTTTCCTTGTTTCGGAGTCACCTAGTGCAG”, the binding signal was 9100 fluorescence intensity (a.u.).
Consider “TAAAACACCCGGTCTCGTGTCGCTTTGATAACTGCCTCTCCGGAGTCACCTAGTGCAG”, for which the binding signal was 11100 fluorescence intensity (a.u.).
With “CCCTCATCTTCTTCTGTCCTCACGGCCTCCACTTTCTGCTCGGAGTCACCTAGTGCAG” the figure was 12300 fluorescence intensity (a.u.); with “ACATCCATCCTTTCTATGGTGATCTCCTACATGTTCTGTACGGAGTCACCTAGTGCAG”, 8820 fluorescence intensity (a.u.); with “ATCACACGCGTCTACCGCCAGTTGGCTCTCCATGTCTATACGGAGTCACCTAGTGCAG”, 11200 fluorescence intensity (a.u.).
Turning to “TCTCCAAACTATCTACCTCTACTCCTCTTCTCTTCATTTTCGGAGTCACCTAGTGCAG”, the binding signal was 12500 fluorescence intensity (a.u.).
In the case of “AAGTTGTGTTGGTTAGTAACTTAGAGTGTGGTTGGGCGAACGGAGTCACCTAGTGCAG”, the binding signal was 8810 fluorescence intensity (a.u.).
With “ACCAACCCTTCGTCCCAAGTGCCAACTGCGCCTGTCCGATCGGAGTCACCTAGTGCAG” the figure was 8710 fluorescence intensity (a.u.).
On to “CAGATCATCACCTCTCCACCCGTTTCTTTCTCGGCCCATCCGGAGTCACCTAGTGCAG”, for which the binding signal is 8210 fluorescence intensity (a.u.).
As for “GCCCCGGACAATGGAGGATGGATATTTGCTACTAGTACCGCGGAGTCACCTAGTGCAG”, the binding signal was 8320 fluorescence intensity (a.u.).
“TTCTTCGATTGTTCAGGAGTTAGTGTTTGTCTGCTTTTTTCGGAGTCACCTAGTGCAG”: the binding signal was 11100 fluorescence intensity (a.u.).
With “TCCACCTCACCTTGCACCACCTGCTCCGCCGCCGCCGCCGCGGAGTCACCTAGTGCAG” the figure was 9040 fluorescence intensity (a.u.); with “CGCACATATGGTAAGCATCCTCGTCTCCTCCTGCTCGTTCCGGAGTCACCTAGTGCAG”, 13100 fluorescence intensity (a.u.).
In the case of “TACTGCCCATCTCCGCCATAGCGTCGTACGTACTACACGCCGGAGTCACCTAGTGCAG”, the binding signal is 8080 fluorescence intensity (a.u.).
With “ACAACTGCGCGTCTTCACTACCGGTTTGCTTCTGTTGCCGCGGAGTCACCTAGTGCAG”, the binding signal is 8560 fluorescence intensity (a.u.).
With “ATGCCGGGGAGCTCGCCTACTCGCCATCGTCTGCCGCACCCGGAGTCACCTAGTGCAG” the figure was 8110 fluorescence intensity (a.u.).
Turning to “AACAGGCCATATATCGATCCGCGCGGGCCCACCTACCTTCCGGAGTCACCTAGTGCAG”, the binding signal was 9790 fluorescence intensity (a.u.).
With “TCTCACTGTTGGCACTTTCACAATCACATCCGCGCGCATTCGGAGTCACCTAGTGCAG” the figure was 10200 fluorescence intensity (a.u.).
With “ACTCACTCGCTCACACCTTCCATTAGATTTACATTTTGGTCGGAGTCACCTAGTGCAG” the figure was 9740 fluorescence intensity (a.u.).
With “AGTTGCTTATTGCTTCCTCTTTGCCTCCTCACTCCATGACCGGAGTCACCTAGTGCAG” the figure was 8100 fluorescence intensity (a.u.); with “ATTTTTTACCTAGCCTCTGCATCATGAATACATTTACTTTCGGAGTCACCTAGTGCAG”, 9020 fluorescence intensity (a.u.).
Turning to “GAGTACCTCTCGTTGTCTCCTCCGCTCCTTGCCTCGTTGCCGGAGTCACCTAGTGCAG”, the binding signal is 10100 fluorescence intensity (a.u.).
With “TCTCCCACGTCCGCGCGCCGCCGCCTCCCTCCTCGCCACCCGGAGTCACCTAGTGCAG” the figure was 8320 fluorescence intensity (a.u.); with “GGTTATCCTTCGTCTGTGGTTATCCGGGCTTAGGGTTCAGCGGAGTCACCTAGTGCAG”, 8750 fluorescence intensity (a.u.); with “CACACACACAAATCCACAAGTAGACATCCTTCCATGTCTTCGGAGTCACCTAGTGCAG”, 8380 fluorescence intensity (a.u.).
As to “CTGCAGTATCCTCCACTCCACTTTGGCACCATTGTCCCACCGGAGTCACCTAGTGCAG”, the binding signal is 11300 fluorescence intensity (a.u.).
“CTCCACGCATTGCTTCTTGATTCTTGATTCTTGCTGCTTCCGGAGTCACCTAGTGCAG”: the binding signal is 9130 fluorescence intensity (a.u.).
Regarding “CTCCACTTCGATCGACCGTTTCGTCGCGGCCACGAAATCGCGGAGTCACCTAGTGCAG”, the binding signal was 8860 fluorescence intensity (a.u.).
With “GGCAGGTTGCAGTTGTCGCTTGCGGGGAGGACGGGGAATGCGGAGTCACCTAGTGCAG” the figure was 12100 fluorescence intensity (a.u.); with “TCGGCTATCCTGCACTGCATCTTCATCTCGAAAATTTTCACGGAGTCACCTAGTGCAG”, 14700 fluorescence intensity (a.u.).
Consider “GTTTACCATTGCATTCCCCGGTCCACGTGCATCAGTGCATCGGAGTCACCTAGTGCAG”, for which the binding signal is 9610 fluorescence intensity (a.u.).
With “GGTGCGACGGCTTGGTTGATTGGGTGACGGGTGGGATTTGCGGAGTCACCTAGTGCAG” the figure was 10500 fluorescence intensity (a.u.).
On to “CTTCCCCACCCAGCTGCGCGCCATTTTGTTCCACCGCGTCCGGAGTCACCTAGTGCAG”, for which the binding signal was 8980 fluorescence intensity (a.u.).
With “TGGCCGTCTCGTCTCCGCTCCTCGCGCCCTGCGCCGATCTCGGAGTCACCTAGTGCAG” the figure was 9560 fluorescence intensity (a.u.); with “TCTTGCTGCTTGCTTGGTGGTGGTGGTAGCTTTCATAATGCGGAGTCACCTAGTGCAG”, 8170 fluorescence intensity (a.u.).
With “CAGCATCACTAATTTGTCTGAATTCTATATTCCATGCTCGCGGAGTCACCTAGTGCAG” the figure was 8960 fluorescence intensity (a.u.); with “ACCTACACTTATATATCTGTTCATCTTGTGATAACGCTTCCGGAGTCACCTAGTGCAG”, 8710 fluorescence intensity (a.u.).
On to “ACATATGAAATTGCGCAACAACCAACTTCAATACATTTTTCGGAGTCACCTAGTGCAG”, for which the binding signal was 9030 fluorescence intensity (a.u.).
With “GATGTACCGAGTATACACGACAAGCGCTCACAGCCCAAACCGGAGTCACCTAGTGCAG”, the binding signal was 8500 fluorescence intensity (a.u.).
Turning to “TAAATTGTTCGTTACCGTATCCACGCAGGTTTGTTTTTGCCGGAGTCACCTAGTGCAG”, the binding signal was 10600 fluorescence intensity (a.u.).
